Measurements reported in PubChem BioAssay (Tox21).
Where “and” joins values, the source holds several entries; their conditions need not be identical. Identical values can stand only once. The inconclusive results got no clear call from the source; some entries with a clear call stand among them for comparison. A potency beside an inconclusive call is a rough fit, not a confirmed value. A structure can be active in one record and inactive in another. Calls of active or inactive are those of the source. Unless noted, the call rests on the fitted dose curve.

System: not listed separately
Assay: cAMP Responsive Elements (CRE) small molecule antagonists, cell-based qHTS assay (AID 1963591; active means well fitted inhibition curve with a large enough effect in the signal ratio in the repeat runs, not every such curve was filed as active; inconclusive means weak or mixed curves, or effect the other way; the % refers to the signal ratio)
Conditions: CRE-bla HEK293T, beta-lactamase FRET ratio; activity change, negative = inhibition: at 92.4 µM (top of the series) unless noted
In short: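 HEK293T cells carrying a CRE-driven beta-lactamase reporter receive compound and NKH477 (0.25 uM final) for 3 h. Fluorescence from LiveBLAzer B/G FRET substrate is read after 2 h at room temperature.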
On the % scale 0 is the no-effect control and ±100 the full control effect; potency means the concentration at half of the fitted maximal effect.

SMILES | Potency | activity change, negative = inhibition
CCn1c2ccccc2c2cc(N)ccc21 | inconclusive: 5.7 µM [rising, full curve] | 
O=C(Nc1cccc(Cl)c1)OCC#CCCl | inconclusive: 68.6 µM [fluorescent, single point] | 
CCCCc1nc2cccnc2n1Cc1ccc(-c2ccccc2-c2nnn[nH]2)cc1 | inconclusive: 45.2 µM [fluorescent, partial curve] | 
CCOC(=O)C1=C(C)NC(C)=C(C(=O)OCC)C1c1ccccc1/C=C/C(=O)OC(C)(C)C |  | inconclusive: 10.7% [at 42.4 µM]
CCN(CC)c1ccc2c(C)cc(=O)oc2c1 | inconclusive: 44.9 µM [fluorescent, partial curve] and inconclusive: 45.2 µM [fluorescent, partial curve] | 

Target: Beta-2 adrenergic receptor (Homo sapiens) (UniProt P07550)
Assay: Adrenergic beta2 receptor (ADRB2) small molecule antagonists, cell-based qHTS assay (AID 1963592); further: nearly all actives have a fitted effect of over 50% in size
Conditions: CHO-ADRB2 cells, isoproterenol-stimulated cAMP HTRF ratio, 0.5 h; activity change, negative = inhibition: at 92.4 µM (top of the series) unless noted
In short: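 Cells (CHO, stable ADRB2 overexpression) incubated 18-20hr at 37C; compounds added from DMSO; agonist mix (1nM isoproterenol, 100uM IBMX, 25uM Ro-20-1724) added; 0.5hr RT; d2-cAMP and anti-cAMP-cryptate added; 1hr RT; 665/615 nm read.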

SMILES | activity change, negative = inhibition | Potency
OCc1c[nH]c2ccccc12 | inconclusive: 2.56% | 
O=C(c1cc(O)c(O)c(O)c1)c1ccc(O)c(O)c1O |  | inconclusive: 54.3 µM [falling, partial curve]
c1ccc2cc(Nc3ccc(Nc4ccc5ccccc5c4)cc3)ccc2c1 |  | inconclusive: 77.4 µM [falling, single point]
CCN(C)C(=O)Oc1cccc([C@H](C)N(C)C)c1 |  | inconclusive: 11.9 µM [inhibitor, partial curve, poor fit]
CCn1c2ccccc2c2cc(N)ccc21 |  | active: 67.9 µM
Nc1ccc2c(O)cc(S(=O)(=O)O)cc2c1 | inconclusive: -40.8% and inconclusive: -40.7% | 
CCCCc1nc2cccnc2n1Cc1ccc(-c2ccccc2-c2nnn[nH]2)cc1 | inconclusive: -18.2% | 

Target: Beta-2 adrenergic receptor (Homo sapiens) (UniProt P07550)
Assay: Adrenergic beta2 receptor (ADRB2) small molecule agonists, cell-based qHTS assay (AID 1963593);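 on activation: CHO cells stably overexpressing human ADRB2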
Conditions: CHO-ADRB2 cells, cAMP HTRF, 30 min; activation: at 92.4 µM (top of the series) unless noted
In short: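 CHO cells stably over-expressing ADRB2 were plated overnight at 37C, then dosed with compounds plus a stimulation mix containing 100uM IBMX and 25uM Ro-20-1724 for 0.5hr at room temperature. cAMP was measured by HTRF competition, 1hr.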

SMILES | Potency | activation
OCc1c[nH]c2ccccc12 | inconclusive: 0.0344 µM [inhibitor, full curve, poor fit] | 
O=S(=O)(O)c1ccc(Nc2nc(Nc3ccc(/C=C/c4ccc(Nc5nc(Nc6ccc(S(=O)(=O)O)cc6)nc(N(CCO)CCO)n5)cc4S(=O)(=O)O)c(S(=O)(=O)O)c3)nc(N(CCO)CCO)n2)cc1 |  | inconclusive: -16.3% [at 42.5 µM]
O=C(c1cc(O)c(O)c(O)c1)c1ccc(O)c(O)c1O | inconclusive: 68.4 µM | 
Nc1nc(Cl)nc2c1ncn2[C@H]1C[C@H](O)[C@@H](CO)O1 | inconclusive: 1.36 µM [inhibitor, partial curve, poor fit] | 
NC(=O)c1ccccc1O |  | inconclusive: 19.5%
c1ccc2c(c1)c1cccc3ccc4cccc2c4c31 |  | inconclusive: 12.7% and inconclusive: 4.98%
c1ccc2cc(Nc3ccc(Nc4ccc5ccccc5c4)cc3)ccc2c1 | inconclusive: 27.5 µM [falling, partial curve, poor fit] | 
O=c1ccc2ccccc2o1 | inconclusive: 0.279 µM [inhibitor, partial curve, poor fit] | inconclusive: -6.98%
Cc1ccc2nc(-c3ccc(N)cc3)sc2c1S(=O)(=O)O | inactive | 
CCc1c2c(nc3ccc(OC(=O)N4CCC(N5CCCCC5)CC4)cc13)-c1cc3c(c(=O)n1C2)COC(=O)[C@]3(O)CC | inconclusive: 0.0007 µM | 
CCN(C)C(=O)Oc1cccc([C@H](C)N(C)C)c1 | inconclusive: 2.98 µM [inhibitor, full curve, poor fit] | 
Cc1c2ccccc2c(C)c2c1ccc1ccccc12 | inconclusive: 68.6 µM [activator, single point] | inconclusive: -6.9%
CCCCCCCCC(=O)O | inactive | 
CCC1(c2ccccc2)C(=O)NCNC1=O | inconclusive: 68.6 µM [inhibitor, single point] | 
Cc1ccc(Cl)cc1 |  | inconclusive: 34.8%
CC(=O)c1ccc2c(c1)N(CCCN(C)C)c1ccccc1S2 |  | inconclusive: -41% [at 42.5 µM]
OC(CCl)CCl |  | inconclusive: -67.5% and inconclusive: 0.53%
CCCCC/C=C\C/C=C\CCCCCCCC(=O)NC(C)c1ccccc1 (centres undefined) | inactive | 
CN(C)[C@@H]1C(=O)C(C(N)=O)=C(O)[C@@]2(O)C(=O)C3=C(O)c4c(O)cccc4C[C@H]3C[C@@H]12 | inactive | 
CCn1c2ccccc2c2cc(N)ccc21 | inconclusive: 67.9 µM [inhibitor, partial curve, poor fit] and inactive and inconclusive: 30.6 µM [inhibitor, full curve, poor fit] | 
Nc1ccc2c(O)cc(S(=O)(=O)O)cc2c1 | inconclusive: 54.5 µM [inhibitor, partial curve] and inconclusive: 68.6 µM [inhibitor, partial curve] | 
O=C(Nc1cccc(Cl)c1)OCC#CCCl | inactive | 
CCCCc1nc2cccnc2n1Cc1ccc(-c2ccccc2-c2nnn[nH]2)cc1 | inconclusive: 0.611 µM [inhibitor, full curve, poor fit] | 
CCOC(=O)C1=C(C)NC(C)=C(C(=O)OCC)C1c1ccccc1/C=C/C(=O)OC(C)(C)C |  | inconclusive: -1.3% [at 42.5 µM]
CCN(CC)c1ccc2c(C)cc(=O)oc2c1 | inconclusive: 49 µM [inhibitor, partial curve, poor fit] | 
